Data published in PubChem BioAssay AID1347075 (National Center for Advancing Translational Sciences (NCATS), 2019).
“And” between values parts separate entries of the source, which are not always exact repeats. Equal entries are not always repeated. Among all 400,000 compounds or so, about 5,500 (1.4%) were called active. Inconclusive results, whose numbers are uncertain, are shown with a selection of clear calls. Calls follow the shape of the dose curve; as a rule, active = well fitted cell-killing curve with a large enough effect; inconclusive = small, poorly fitted or top-dose-only effect, or effect the other way; inactive = flat fitted curve, though single readings scatter. Potencies beside an inconclusive call are fits to weak or partial responses and may not hold up.

Assay: qHTS assay for MDR1-selective chemotherapeutics: Primary screen using the parental adenocarcinoma cell KB-3-1; also: nearly all actives have a fitted effect of over 60% in size
Details: KB-3-1 viability, CellTiter-Glo ATP luminescence, 72 h; activity change, negative = cytotoxic: at 46.1 µM (top of the series)
Procedure, shortened: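 KB-3-1 parental drug-naive adenocarcinoma cells in DMEM/10% FBS, incubated 72 h at 37 C with pin-transferred compounds across a concentration series. Viability by CellTiter-Glo luminescence; concentration-response curves fitted after normalization.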
% is scaled to controls: 0 for no effect and ±100 for the full control effect; potency is read from the fitted curve at half-maximal effect.

Row | Compound | Potency | activity change, negative = cytotoxic
1 | O=C(NCc1nc(-c2ccc(C(F)(F)F)cc2)no1)Nc1cc(Cl)cc(Cl)c1 | inconclusive: 23.1 µM [cytotoxic, single point] | 
2 | CCN1C(=O)C(CC(=O)Nc2c(C)cccc2C)Nc2cc(S(=O)(=O)N(C)C)ccc21 (centres undefined) | inconclusive: 29.1 µM [rising, single point] | 
3 | CCCCc1ccc(NC(=O)COc2cccc3c(=O)n(C)ccc23)cc1 | inconclusive: 1.46 µM [cytotoxic, full curve, poor fit] | 
4 | CCOC(=O)c1c(C)c(-c2ccccc2)n(CC(=O)NCCc2ccc(C)cc2)c1C | inactive | 
5 | O=C1N=C(N2CCCCC2)S/C1=C\c1ccc(Br)cc1 | inactive | 
6 | COc1ccc(CC(N)c2csc(NC(=O)C(c3ccccc3)c3ccccc3)n2)cc1 (centres undefined) | inconclusive: 23.1 µM [cytotoxic, single point] | 
7 | COc1ccc(S(=O)(=O)N2CCN(C(=O)c3cc4c(s3)CCCC4)CC2)cc1 | inconclusive: 23.1 µM [cytotoxic, single point] | 
8 | COc1ccc(CNC(=O)C[C@H]2C[C@H](C(=O)N3CCOCC3)[C@@]3(CCC4CCCC4)c4[nH]c5cc(-c6ccco6)ccc5c4CCN3C2=O)cc1OC | inconclusive: 29.1 µM [cytotoxic, single point] | 
9 | COc1ccc(S(=O)(=O)N2CCCOC2CNC(=O)C(=O)NC2CCCC2)cc1 (centres undefined) | inconclusive: 20.6 µM [rising, single point] | 
10 | N=c1c2c(-c3ccccc3)c(-c3ccccc3)n(Cc3ccco3)c2ncn1Cc1ccco1 | active: 16.4 µM | 
11 | O=C(N/N=C/c1ccncc1)c1sc2ccccc2c1Cl | inactive | 
12 | Cc1noc(C)c1CN1C(=O)c2ccccc2C1=O | inactive | 
13 | COc1cc(C(=O)NCC(=O)NCCN2C(=O)S/C(=C\c3ccccc3Cl)C2=O)cc(OC)c1OC | inconclusive: 29.1 µM [rising, single point] | 
14 | Cc1cc(/C=C\c2ccc3cc(N(C)C)ccc3[n+]2C)c(C)n1-c1ccccc1 | active: 4.61 µM | 
15 | CCN(CC)c1ccc(-n2nc3cc(C)c(NC(=O)c4ccccc4F)cc3n2)cc1 | inactive | 
16 | CC(=O)Nc1ccc(N2Cc3ccccc3C2)cc1 | inconclusive: 29.1 µM [cytotoxic, single point] | 
17 | O=C(c1ccco1)N1CCN(CCCCOc2cccc3ccccc23)CC1 | inconclusive: 16.4 µM [cytotoxic, single point] | 
18 | C/C(CC(=O)Nc1ccc(Cl)c(C(F)(F)F)c1)=N\NC(=O)c1ccccc1O | inconclusive: 29.1 µM [cytotoxic, single point] | 
19 | CC(=O)c1cc2c(cc1NC(=O)c1cc(C)nn1-c1ccccc1)OCO2 | active: 5.8 µM | 
20 | Oc1cccc(C2c3[nH]c4ccccc4c3CCN2Cc2ccc3c(c2)CCO3)c1 (centres undefined) | active: 20.6 µM | 
21 | COc1cccc2sc(Nc3nnc(-c4cccs4)o3)nc12 | inconclusive: 3.26 µM [cytotoxic, full curve, poor fit] | 
22 | Cc1cc(/C=N/n2cnnc2)c(C)n1-c1ccc(OCc2ccc(Cl)cc2Cl)cc1 | active: 7.31 µM | 
23 | Cc1ccccc1OCCNc1cc(N2CCCCC2)ccc1[N+](=O)[O-] | inactive | 

Row | Compound | Potency | activity change, negative = cytotoxic
24 | COc1ccc(-c2nc3ccccc3s2)cc1NC(=O)c1cc2ccccc2o1 | inactive | 
25 | Cn1c(CCN2CCCCC2)nc2cc(NS(=O)(=O)c3ccc(Cl)cc3)ccc21 | inconclusive: 29.1 µM [cytotoxic, single point] | 
26 | CC(C)C[C@@H](CN1CCC[C@@H]1CN1C(=O)C(=O)NC[C@@H]1Cc1ccccc1)N1C[C@H](Cc2ccc(O)cc2)N(CC2CCCCC2)C(=O)C1=O | inconclusive: 25.9 µM [cytotoxic, single point] | 
27 | CC1(C(=O)Nc2cccc3cccnc23)CCN1Cc1csc2ccccc12 (centres undefined) |  | inconclusive: -2.91%
28 | COc1cc(/C=C2/SC(=Nc3ccc(O)cc3)NC2=O)ccc1O | active: 9.2 µM | 
29 | CCC(C)[C@H](NC(=O)OC(C)(C)C)C(=O)NCC1CCC(C(=O)N[C@@H](Cc2ccccc2)C(=O)O)CC1 (some centres undefined) | inconclusive: 4.11 µM [cytotoxic, full curve] | 
30 | COc1ccc(C(CC(=O)O)N2C(=O)CCC2=O)cc1 (centres undefined) | inactive | 
31 | CC1C=CCC2C(=O)N(c3cccc(C(=O)N4CCN(c5ccc(F)cc5)CC4)c3)C(=O)C12 (centres undefined) | inactive | 
32 | Cn1c(N/N=C/c2c[nH]c3ccccc23)nc2ccccc21 | inconclusive: 13 µM [cytotoxic, partial curve] | 
33 | CC1CN(C(=O)N2c3ccccc3Sc3ccccc32)C(C)CC1=O (centres undefined) | inconclusive: 20.6 µM [cytotoxic, single point] | 
34 | CCOc1ccc(-c2nonc2NC(=O)c2ccc(C)cc2)cc1OCC | inactive | 
35 | CC(=O)O[C@]1(C(C)=O)CCC2C3C=C(C)C4=CC(=O)CC[C@]4(C)C3CC[C@@]21C (some centres undefined) | inactive | 
36 | COc1ccc(C(=O)NC2CCCc3ccccc32)cc1Br (centres undefined) | inconclusive: 20.6 µM [cytotoxic, single point] | 
37 | Cc1nc(-c2ccc(S(=O)(=O)NCc3cccnc3)s2)cs1 | inconclusive: 32.6 µM [cytotoxic, single point] | 
38 | O=C(C(=Cc1ccccc1)CN1CCCCC1)c1ccccc1 | active: 5.17 µM | 
39 | Cc1nc2ccc(C(=O)N3c4ccccc4N=C(c4ccc(C(F)(F)F)cc4)C3C(=O)NC(C)(C)C)cc2[nH]1 (centres undefined) | inconclusive: 29.1 µM [cytotoxic, single point] | 
40 | CCc1nc2ccc(C(=O)NCCN3CCOCC3)cn2c1N(C=O)Cc1ccc(OC)cc1 | inactive | 
41 | CC(C)c1ccccc1OCC(O)CN1CCN(S(=O)(=O)c2ccc([N+](=O)[O-])cc2)CC1 (centres undefined) | active: 6.51 µM | 
42 | CSC1=C(C#N)C(c2ccccc2)C(C(C)=O)=C(C)N1 (centres undefined) | inactive | 
43 | CCCCn1c(=NC(C)=O)c(C#N)cc2c(=O)n3cccc(C)c3nc21 | inconclusive: 29.1 µM [cytotoxic, single point] | 
44 | COc1cc(/C=C2\CCC(C)C3=C(c4cc(OC)c(OC)c(OC)c4)C(C#N)=C(N)OC32)cc(OC)c1OC (centres undefined) | inconclusive: 29.1 µM [cytotoxic, single point] | 
45 | COc1ccc(NC(=O)N2CCc3ccccc32)cc1 | inconclusive: 18.4 µM [cytotoxic, partial curve] | 
46 | COc1ccc(CN(C)C(=O)c2cccc(S(=O)(=O)N3CCc4ccccc43)c2)c(OC)c1 | active: 18.4 µM | 

Look-ups from the entries so far:
Under Potency, COc1ccc(NC(=O)N2CCc3ccccc32)cc1 has the entry inconclusive: 18.4 µM [cytotoxic, partial curve]
Under Potency, CC(=O)O[C@]1(C(C)=O)CCC2C3C=C(C)C4=CC(=O)CC[C@]4(C)C3CC[C@@]21C (some centres undefined) has the entry inactive
Under Potency, CSC1=C(C#N)C(c2ccccc2)C(C(C)=O)=C(C)N1 (centres undefined) has the entry inactive

(continued)

Row | Compound | Potency | activity change, negative = cytotoxic
47 | CN[C@H]1CCc2cc(OC)c(OC)c(OC)c2-c2ccc(OC)c(=O)cc21 | active: 0.0291 µM | 
48 | Cc1ccc(SC[C@H](C)CN2CCC(NC(=O)OCc3ccccc3)CCC2=O)cc1 (some centres undefined) | inconclusive: 20.6 µM [cytotoxic, partial curve] | 
49 | Cc1cccn2c(=O)c(/C=C(\C#N)S(=O)(=O)c3ccccc3)c(Oc3ccc(Cl)cc3)nc12 | inconclusive: 16.4 µM [cytotoxic, single point] | 
50 | COc1cc(N2C(=O)C=CC2=O)ccc1N1C(=O)C=CC1=O | active: 18.4 µM | 
51 | CCCCn1nc(NC(=O)c2cccs2)c2cc3ccccc3nc21 | inconclusive: 29.1 µM [cytotoxic, single point] | 
52 | N#Cc1ccc(-c2nc3c4ccccc4ccn3c2Cc2ccccc2C(F)(F)F)cc1 | inconclusive: 29.1 µM [cytotoxic, single point] | 
53 | Cc1nc(SCC(=O)N2CCCCCC2)c2c(=O)n(C)c(=O)n(CC(C)C)c2n1 | inconclusive: 29.1 µM [cytotoxic, single point] | 
54 | CCOC(=O)C1(CCOc2ccccc2)CCN(Cc2ccc(O)c(Cl)c2)CC1 | inactive | 
55 | C=CCNc1nnc(Cc2ccc(C(C)C)cc2)c(=O)[nH]1 | active: 14.6 µM | 
56 | Cc1cc(C)c(C#N)c(Sc2nnnn2-c2ccccc2)n1 | inconclusive: 32.6 µM [cytotoxic, partial curve, poor fit] | 
57 | C=CCc1cccc2cc(C(=O)OCC(=O)c3ccccc3)c(=O)oc12 | inactive | 
58 | O=C(Nc1ccc(F)cc1F)c1ccc2c(=O)n3c(nc2c1)CCCCC3 | inconclusive: 23.1 µM [cytotoxic, partial curve, poor fit] | 
59 | Cc1cccc(C)c1NC(=S)NCCSc1ccc(Cl)cc1 | inconclusive: 0.0517 µM [cytotoxic, full curve] | 
60 | Cc1ccc(C)c(/C=C/C(=O)c2ccccc(=O)c2O)c1 | active: 11.6 µM | 
61 | CCCCNc1c(-c2ccc(OC)c(SC(C)CC)c2)nc2ccc(C)cn12 (centres undefined) | inconclusive: 20.6 µM [cytotoxic, single point] and inconclusive: 29.1 µM [cytotoxic, single point] | 
62 | CC(C)n1c(SCC(=O)Nc2nc3ccccc3s2)nc2c1c(=O)n(C)c(=O)n2C | inactive | 
63 | CCCCCCCNC(=O)C1(CC2CC(c3ccc(Cl)cc3)=NO2)CCNCC1 (centres undefined) | inconclusive: 29.1 µM [cytotoxic, single point] | 
64 | C=CCn1c(SCc2csc(-c3ccc(Cl)cc3)n2)nnc1-c1ccccc1OC | inconclusive: 29.1 µM [cytotoxic, single point] | 
65 | CC(=O)c1c(C)[nH]c(C(=O)OCC(=O)NCCc2ccc(F)cc2)c1C | inactive | 
66 | CN(Cc1ccccc1F)c1nc(-c2cccnc2)nc2ccccc12 | inconclusive: 16.4 µM [cytotoxic, single point] | 
67 | COC(=O)c1cc(C(=O)N2CCN(c3cccc(C)c3C)CC2)cc([N+](=O)[O-])c1 | active: 5.8 µM | 
68 | O=C(/C=C/c1cc(Br)ccc1F)OCC(=O)N1CCCC1 | inactive | 
69 | Cc1ccc(-c2nnc(NC(=O)c3ccco3)o2)c(C)c1 |  | inconclusive: -32.8% [cytotoxic]
